Results reported in article PMC6126864.
Results are given in words; binding and its absence hold for the method and conditions named. In cells and extracts the contact can be indirect. For some assays here: Binding can be weak; no strength is given. Sequences can lack the tags named with a protein. One block for each molecule: values may come before it.

Experiments:
Experiment in all cases: co-IP; S2 cells co-transfected with the two tagged proteins; lysate (25 mM Tris pH 8, 27.5 mM NaCl, 20 mM KCl, 0.5% Nonidet P40) immunoprecipitated with anti-Myc, anti-Flag or anti-HA overnight at 4°C, protein A/G beads, washed four times with cold PBS; western blot
[1] = target: T1, Flag-Bap (β-Adaptin) (Drosophila) (UniProt Q24253)
T1 sequence: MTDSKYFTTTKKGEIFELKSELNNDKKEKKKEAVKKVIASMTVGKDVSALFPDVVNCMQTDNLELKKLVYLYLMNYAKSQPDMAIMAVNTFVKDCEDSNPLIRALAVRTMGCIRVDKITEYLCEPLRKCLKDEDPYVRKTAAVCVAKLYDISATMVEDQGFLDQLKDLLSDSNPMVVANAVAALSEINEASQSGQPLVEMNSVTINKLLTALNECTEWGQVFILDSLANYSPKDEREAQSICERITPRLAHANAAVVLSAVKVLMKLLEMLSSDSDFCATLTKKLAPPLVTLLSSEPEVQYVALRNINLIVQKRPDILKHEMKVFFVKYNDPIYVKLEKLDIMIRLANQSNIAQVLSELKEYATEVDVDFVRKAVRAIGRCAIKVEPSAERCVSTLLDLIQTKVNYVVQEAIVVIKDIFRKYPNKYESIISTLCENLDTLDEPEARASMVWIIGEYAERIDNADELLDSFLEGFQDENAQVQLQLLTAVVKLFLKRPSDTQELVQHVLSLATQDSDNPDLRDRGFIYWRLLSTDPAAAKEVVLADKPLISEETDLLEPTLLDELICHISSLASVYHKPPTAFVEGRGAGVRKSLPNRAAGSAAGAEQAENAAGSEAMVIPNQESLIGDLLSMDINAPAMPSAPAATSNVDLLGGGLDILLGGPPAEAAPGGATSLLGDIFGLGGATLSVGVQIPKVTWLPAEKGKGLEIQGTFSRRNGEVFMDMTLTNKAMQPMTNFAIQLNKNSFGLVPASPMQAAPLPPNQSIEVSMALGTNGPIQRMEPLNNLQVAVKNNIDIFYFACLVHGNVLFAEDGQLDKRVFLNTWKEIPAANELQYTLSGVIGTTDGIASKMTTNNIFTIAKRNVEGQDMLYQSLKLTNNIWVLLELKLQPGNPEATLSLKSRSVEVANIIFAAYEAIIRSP

[2] = target: T2, Flag-Rab5 (Drosophila) (UniProt Q9V3I2)
T2 sequence: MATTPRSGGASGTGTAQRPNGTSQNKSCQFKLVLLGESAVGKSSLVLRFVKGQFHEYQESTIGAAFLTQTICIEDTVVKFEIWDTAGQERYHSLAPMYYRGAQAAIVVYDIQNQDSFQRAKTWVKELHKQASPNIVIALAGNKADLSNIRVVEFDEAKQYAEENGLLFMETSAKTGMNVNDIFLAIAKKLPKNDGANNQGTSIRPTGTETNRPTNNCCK

[3] = target: T3, Flag-α-Ada (α-Adaptin) (Drosophila) (UniProt P91926)
T3 sequence: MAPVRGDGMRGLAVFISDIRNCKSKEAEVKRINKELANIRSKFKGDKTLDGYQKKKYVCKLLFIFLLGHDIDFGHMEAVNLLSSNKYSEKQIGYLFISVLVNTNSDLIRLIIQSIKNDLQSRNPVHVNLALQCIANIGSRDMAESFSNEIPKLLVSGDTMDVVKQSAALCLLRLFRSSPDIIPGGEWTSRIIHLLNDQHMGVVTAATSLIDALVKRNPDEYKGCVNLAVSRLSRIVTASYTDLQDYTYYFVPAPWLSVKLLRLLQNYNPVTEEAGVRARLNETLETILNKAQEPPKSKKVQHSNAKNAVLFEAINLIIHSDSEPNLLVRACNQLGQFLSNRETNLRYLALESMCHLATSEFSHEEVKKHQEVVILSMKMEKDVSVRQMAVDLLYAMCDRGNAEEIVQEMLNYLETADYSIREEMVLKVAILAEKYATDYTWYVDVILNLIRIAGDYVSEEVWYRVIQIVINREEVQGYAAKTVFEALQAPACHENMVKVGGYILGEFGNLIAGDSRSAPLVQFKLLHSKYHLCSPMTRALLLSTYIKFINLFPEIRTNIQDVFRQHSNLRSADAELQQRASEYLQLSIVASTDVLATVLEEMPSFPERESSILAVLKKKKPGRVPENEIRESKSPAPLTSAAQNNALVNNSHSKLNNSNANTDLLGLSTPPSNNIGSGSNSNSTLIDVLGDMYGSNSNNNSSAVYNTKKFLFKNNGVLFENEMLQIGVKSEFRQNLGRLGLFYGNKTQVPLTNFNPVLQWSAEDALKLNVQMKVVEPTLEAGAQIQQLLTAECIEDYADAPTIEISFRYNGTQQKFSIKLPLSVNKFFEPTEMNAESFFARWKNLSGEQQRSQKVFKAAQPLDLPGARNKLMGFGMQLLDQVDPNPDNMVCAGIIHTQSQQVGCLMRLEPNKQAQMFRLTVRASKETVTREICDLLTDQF

[4] = target: Myc-Prd1 (pruning defect 1) (Drosophila)

binding [1]: binds
binding [2]: no binding
binding [3]: binds
Molecule: Myc-Prd1 (pruning defect 1) (Drosophila)

binding [4]: binds
B1: Flag-α-Ada (α-Adaptin) (protein, UniProt P91926 1-940)
chain: T3 sequence

binding [4]: no binding
B2: Flag-Rab5 (protein, UniProt Q9V3I2 1-219)
chain: T2 sequence
